Values joined by “and” are separate entries in the source; they are usually repeats but may differ in a detail not shown here. Identical values can stand only once. This continues a long series; more values of the same kind are listed elsewhere.
Experiments:
Assay type in all cases: cell-based
Conditions in all cases: single replicate
MRGPRX4 WT (S83) = MRGPRX4 WT (S83) (Homo sapiens, UniProt Q96LA9, L83S); experiment: Calcium mobilization assay (FLIPR), WT (S83) MRGPRX4 transiently expressed in HEK293T cells; set-up: expressed in transfected cells; host or cells: HEK293T, transient
Description: (§1) Fig. 4. […] Hydrogen bond is shown as cyan dashed lines. […] Data are from three independent experiments, performed in triplicate. (E) pEC50 plots of various agonists toward S83- and L83-MRGPRX4 through calcium mobilization assay. […] Each data point represents an independent experiment, performed in triplicate. The extra sum-of-square F test was used to examine the difference in EC50 values. One-sided t-test was used for nateglinide. *p< 0.05, **p< 0.01 and ***p< 0.001. ns = no statistical significance. Both (D) and (E) are reported as the mean ± SEM. N.D.= no detectable response ≤ 100 μM.
(§2) HEK293 cells and MRGPRX4 stably expressed HEK293 cells were seeded in 100 μl culture media on 96-well plates at a density of 40,000 cells per well and incubated overnight. The next day, the media were replaced with a dye-loading solution from the FLIPR Calcium 5 assay kit (Molecular Devices), diluted in Hank's Balanced Salt Solution (HBSS) with 20 mM HEPES, pH 7.4. After 1 h of incubation at 37°C, cells were allowed to recover for 10 min in the dark at room temperature prior to performing intracellular calcium mobilization assay in a Flexstation-3 instrument with SoftMax®Pro 7.1 software (Molecular Devices). Serial concentrations of tested drugs were prepared in HBSS/HEPES solution at 3X concentration. […] Compounds were tested in triplicates and the signals were averaged. Responses were determined by subtracting the minimum signal (at the baseline before adding the drug) from the maximum signal (obtained after drug stimulation). Four-parameter logistic (4PL) curve fit was used to plot the dose-response curves. […] Both dose-response curve fitting and EC50s calculation are computed with GraphPad Prism software (version: 6.o or above).
(§3) To generate murine Mrgprs expressing cells, HEK293T cells (ATCC) were seeded on poly-D-lysine coated 96 well plate at 25,000 cells per well one day prior to transfection. HEK293T cells were transiently co-transfected with the mammalian expression plasmids carrying cDNA encoding the murine Mrgpr genes and plasmid inserted with cDNA encoding murine α-subunit of the heterotrimeric G15 protein (Gα15) in triplicates using Lipofectamine LTX reagents (Thermo Scientific). To generate WT, S83L, and alanine mutant MRGPRX4-expressing cells, HEK293T cells were seeded on poly-D-lysine coated 384 well plate at 12,000 cells per well one day prior to transfection. Mammalian expression plasmids pLX304 (vector from Addgene) carrying different MRGPRX4 coding sequences were transiently transfected into HEK293T cells in triplicates with Lipofectamine LTX reagents (Thermo Scientific). Intracellular calcium mobilization assays were performed after one day of transfection. Murine Mrgprs tested include Mrgpra1, Mrgpra2a, Mrgpra2b, Mrgpra3, Mrgpra4, Mrgpra6, Mrgpra9, Mrgpra10, Mrgpra11, Mrgpra12, Mrgpra14, Mrgprb5, Mrgprb6, Mrgprb10, Mrgprb11, and Mrgprc11. WT and mutant MRGPRX4 constructs tested include WT, S83L, R82A, R86A, R95A, W158A, Y250A, and Y254A.

The chains behind the UniProt entries cited, without tags or fusion partners.
UniProt Q96LA9, whole entry L83S: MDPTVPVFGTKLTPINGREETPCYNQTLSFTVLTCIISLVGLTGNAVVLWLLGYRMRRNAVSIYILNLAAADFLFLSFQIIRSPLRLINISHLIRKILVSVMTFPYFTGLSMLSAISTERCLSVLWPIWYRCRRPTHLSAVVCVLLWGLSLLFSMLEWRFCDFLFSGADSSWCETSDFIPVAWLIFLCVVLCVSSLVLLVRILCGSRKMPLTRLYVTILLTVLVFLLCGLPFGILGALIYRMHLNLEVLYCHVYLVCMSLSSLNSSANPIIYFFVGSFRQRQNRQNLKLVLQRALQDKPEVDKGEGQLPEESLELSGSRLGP
UniProt Q96LA9, whole entry, stated change not applied: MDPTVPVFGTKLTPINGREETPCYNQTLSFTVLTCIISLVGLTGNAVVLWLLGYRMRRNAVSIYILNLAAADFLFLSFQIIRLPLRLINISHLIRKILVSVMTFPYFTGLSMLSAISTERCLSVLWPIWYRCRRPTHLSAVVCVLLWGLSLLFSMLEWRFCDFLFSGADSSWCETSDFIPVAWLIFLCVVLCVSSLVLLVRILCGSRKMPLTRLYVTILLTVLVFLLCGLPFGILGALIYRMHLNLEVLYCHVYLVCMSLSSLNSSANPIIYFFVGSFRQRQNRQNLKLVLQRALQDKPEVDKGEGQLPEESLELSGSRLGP

MRGPRX4 S83L (L83) [1] = molecular target: T1, MRGPRX4 S83L (L83) (Homo sapiens, UniProt Q96LA9); experiment: Calcium mobilization assay (FLIPR), S83L MRGPRX4 transiently expressed in HEK293T cells; set-up: expressed in transfected cells; host or cells: HEK293T, transient
Description: as §1, §2, §3

MRGPRX4 S83L (L83) [2] = molecular target: T1, MRGPRX4 S83L (L83); experiment: PRESTO-Tango β-arrestin recruitment assay, HTLA cells stably expressing S83L MRGPRX4
Description: HTLA cells, a cell line derived from HEK293 and engineered to stably express a tTA-dependent luciferase reporter and a β-arrestin2-TEV fusion gene, were generously provided by Richard Axel's laboratory. HTLA cells were cultured in growth medium containing 2 μg/ml puromycin and 100 μg/ml hygromycin B in 5% CO2 at 37 °C. Stably MRGPRX4-expressing HTLA cells were generated by transfecting pcDNA3.1(+)-Zeo containing MRGPRX4-Tango construct (either with WT or S83L mutant sequence) into HTLA cells with Lipofectamine 3000 and selecting the successful transfected clones with Zeocin.
HTLA cells stably expressing either WT or S83L MRGPRX4 were seeded in PDL-coated 96-well white clear bottom cell culture plates with DMEM containing 10% FBS, at a density of 35,000 cells per well and were allowed to attach to the bottom of the wells overnight. The next day, growth medium was replaced with 100 μl of serum-free medium containing the tested drugs at various concentrations, and the cells were then incubated at 37°C for 24 h. On the following day, media with drug solutions was removed and 50 μl per well of Bright-Glo™ Reagent from Bright-Glo™ Luciferase Assay System (Promega) was loaded. The plate was incubated at room temperature in the dark for 5 min, and the relative luminescence units were measured using the Flexstation-3 instrument with SoftMax®Pro 7.1 software (Molecular Devices). Dose response curves and EC50s were analyzed as described above.
MRGPRX4 by β-arrestin (Tango) recruitment assay. Data are from three independent experiments,
performed in triplicate, and depicted as mean ± SEM.

C[C@]12CC3CC(C(=O)N[C@H](Cc4ccccc4)C(=O)O)(C1)C[C@@](C)(C3)C2 [MS47134]
fig. S8 response (normalized), concentration-response (MRGPRX4 WT (S83); 188.2 pM): 13.5387
fig. S8 response (normalized), concentration-response (MRGPRX4 WT (S83); 564.5 pM): 4.54
fig. S8 response (normalized), concentration-response (MRGPRX4 WT (S83); 1.69351e-9 M): 19.8622
fig. S8 response (normalized), concentration-response (MRGPRX4 WT (S83); 5.08053e-9 M): 23.2671
fig. S8 response (normalized), concentration-response (MRGPRX4 WT (S83); 1.52416e-8 M): 17.6733
fig. S8 response (normalized), concentration-response (MRGPRX4 WT (S83); 4.57247e-8 M): 15.2412 and 22.2943
fig. S8 response (normalized), concentration-response (MRGPRX4 WT (S83); 1.37174e-7 M): 19.619 and 19.1325
fig. S8 response (normalized), concentration-response (MRGPRX4 WT (S83); 4.11523e-7 M): 26.6721
fig. S8 response (normalized), concentration-response (MRGPRX4 WT (S83); 1.23457e-6 M): 21.3214
fig. S8 response (normalized), concentration-response (MRGPRX4 WT (S83); 3.7037e-6 M): 23.2671
fig. S8 response (normalized), concentration-response (MRGPRX4 WT (S83); 1.11111e-5 M): 62.424
fig. S8 response (normalized), concentration-response (MRGPRX4 WT (S83); 3.33333e-5 M): 60.7215
fig. S8 response (normalized), concentration-response (MRGPRX4 WT (S83); 0.0001 M): 57.5598
fig. S8 response (normalized), concentration-response (MRGPRX4 S83L (L83) [1]; 188.2 pM): 2.444 and 6.228 and -10.8002 and -2.332 and 0.5102 and 0.2915 and 11.1877 and 5.351 and 0.4864
fig. S8 response (normalized), concentration-response (MRGPRX4 S83L (L83) [1]; 564.5 pM): 8.356 and 6.464 and -2.996 and 1.6035 and 2.697 and -11.516 and 8.269 and 0.9728 and -3.891
fig. S8 response (normalized), concentration-response (MRGPRX4 S83L (L83) [1]; 1.69351e-9 M): 6.228 and 7.41 and 6.464 and -1.895 and 5.758 and -4.956 and 14.8358 and 11.4309 and -3.648
fig. S8 response (normalized), concentration-response (MRGPRX4 S83L (L83) [1]; 5.08053e-9 M): 11.9038 and 4.336 and -7.016 and 3.353 and 3.571 and 0.2915 and 13.1334 and 3.648 and 2.4321
fig. S8 response (normalized), concentration-response (MRGPRX4 S83L (L83) [1]; 1.52416e-8 M): 5.991 and 6.937 and 5.518 and 5.977 and 3.134 and 9.475 and 16.0519 and 9.972 and 1.702
fig. S8 response (normalized), concentration-response (MRGPRX4 S83L (L83) [1]; 4.57247e-8 M): 18.7623 and 8.829 and 9.302 and 12.0991 and 12.3178 and 8.819 and 27.2396 and 13.1334 and 13.6198
fig. S8 response (normalized), concentration-response (MRGPRX4 S83L (L83) [1]; 1.37174e-7 M): 36.7363 and 35.3173 and 49.2708 and 38.9942 and 36.1516 and 47.0846 and 59.5865 and 54.2359 and 44.7507
fig. S8 response (normalized), concentration-response (MRGPRX4 S83L (L83) [1]; 4.11523e-7 M): 68.9003 and 70.3193 and 66.0623 and 59.3295 and 70.481 and 70.2624 and 89.7446 and 71.0174 and 72.4767
fig. S8 response (normalized), concentration-response (MRGPRX4 S83L (L83) [1]; 1.23457e-6 M): 80.7253 and 87.1108 and 108.396 and 80.758 and 79.2274 and 77.0408 and 109.201 and 100.689 and 83.9076
fig. S8 response (normalized), concentration-response (MRGPRX4 S83L (L83) [1]; 3.7037e-6 M): 102.72 and 125.187 and 116.673 and 83.8192 and 113.12 and 118.586 and 122.335 and 108.229 and 112.606
fig. S8 response (normalized), concentration-response (MRGPRX4 S83L (L83) [1]; 1.11111e-5 M): 106.74 and 105.321 and 99.6453 and 104.592 and 97.5948 and 94.7522 and 142.764 and 124.767 and 113.336
fig. S8 response (normalized), concentration-response (MRGPRX4 S83L (L83) [1]; 3.33333e-5 M): 111.707 and 102.483 and 84.0363 and 105.466 and 103.499 and 94.9708 and 102.878 and 86.3397 and 75.152
fig. S8 response (normalized), concentration-response (MRGPRX4 S83L (L83) [1]; 0.0001 M): 90.1853 and 100.828 and 110.761 and 96.2828 and 93.4402 and 106.341 and 128.901 and 111.877 and 94.8521

CC(C)c1cccc(C(C)C)c1OCOP(=O)(O)O [Fospropofol]
fig. S7 response (raw signal), concentration-response (MRGPRX4 S83L (L83) [2]; 1.95e-8 M): 14520.1 and 8567.12 and 9483.12 and 17760.9 and 17957.2 and 14106.7 and 18248.8 and 16344.1
fig. S7 response (raw signal), concentration-response (MRGPRX4 S83L (L83) [2]; 3.91e-8 M): 10747.5 and 10454.1 and 12552.8 and 13100.5 and 20055.9 and 18705.8 and 15801.3 and 16275.7 and 13807
fig. S7 response (raw signal), concentration-response (MRGPRX4 S83L (L83) [2]; 7.81e-8 M): 14946.2 and 9294.34 and 13417.8 and 19898.6 and 30205.8 and 30243.6 and 23582.8 and 20002.4 and 22818
fig. S7 response (raw signal), concentration-response (MRGPRX4 S83L (L83) [2]; 1.56e-7 M): 20632.5 and 18156.2 and 27308.9 and 50626.6 and 60480.9 and 43086.1 and 41288.7 and 36240.3 and 40252.6
fig. S7 response (raw signal), concentration-response (MRGPRX4 S83L (L83) [2]; 3.13e-7 M): 28782.5 and 29429.3 and 28436.7 and 111762 and 113697 and 111782 and 49525.7 and 41279.2 and 53368
fig. S7 response (raw signal), concentration-response (MRGPRX4 S83L (L83) [2]; 6.25e-7 M): 56396.3 and 60357.7 and 54431.5 and 266530 and 254615 and 266759 and 98954.5 and 110732 and 101355
fig. S7 response (raw signal), concentration-response (MRGPRX4 S83L (L83) [2]; 1.25e-6 M): 117485 and 143864 and 127914 and 530753 and 489488 and 488203 and 214593 and 203880 and 189396
fig. S7 response (raw signal), concentration-response (MRGPRX4 S83L (L83) [2]; 2.5e-6 M): 283549 and 253268 and 251790 and 906014 and 876206 and 872479 and 401910 and 375325 and 347600
fig. S7 response (raw signal), concentration-response (MRGPRX4 S83L (L83) [2]; 5e-6 M): 407540 and 468206 and 450720 and 1355419 and 1286075 and 1270466 and 563135 and 473189 and 565467
fig. S7 response (raw signal), concentration-response (MRGPRX4 S83L (L83) [2]; 1e-5 M): 570843 and 633653 and 614122 and 1590075 and 1551545 and 1573880 and 728467 and 709998 and 669765
fig. S7 response (raw signal), concentration-response (MRGPRX4 S83L (L83) [2]; 2e-5 M): 570426 and 578197 and 639667 and 1791802 and 1676170 and 1671132 and 592554 and 598891 and 664858

From publication PMC11645656, “MRGPRX4 mediates phospho-drug associated pruritus in a humanized mouse model” (Science translational medicine, 2024)
